Assay results from patent US11672795B2, “Compositions and methods for treating pulmonary vascular disease” (UNIVERSITY OF PITTSBURGH-OF THE COMMONWEALTH SYSTEM OF …, priority 2016, dated 2023).
At least one compound was matched to its structure with a doubt left.

Legend:
PAECs [1] = assay: Proliferation of PAECs (cell count, BrdU pulse, PCNA staining); assay type: cell-based, human; details: PAECs or PASMCs with siRNA knockdown; glutamate 2 mM, aspartate 10 mM supplementation; data not shown
Description: A-C) PAECs were plated on soft (1 kPa) or stiff (50 kPa) matrix and exposed to indicated treatments. Apoptosis (A-C) and proliferation (B-C) were quantified 48 h after plating. […] Apoptosis (as reflected by cleaved caspase-3 staining, CC-3+) was increased by serum starvation in both soft and stiff conditions but was not affected by GLS1 inhibition. In all panels, mean expression in control groups (soft matrix) was assigned a fold change of 1, to which relevant samples were compared. Data are expressed as mean±SD (*P<0.05; ** P<0.01, ***P<0.001).
After various indicated treatments, cultured cells were fixed with PBS/PFA 4% for 10 min and permeabilized with PBS/Triton 100×0.1% for 10 min. The cells were then incubated with anti-PCNA (#4912; 1/100; Invitrogen), anti-Ki67 (ab15580; 1/200; Abcam), and/or anti-cleaved caspase-3 (1/200; Cell Signaling) at room temperature for 2 hours. […]
After specified pre-treatment or transfection protocols as indicated, PAECs or PASMCs were plated in triplicate in 6 well plates at 30 000 cells per well. After overnight incubation for cells to adhere, 6 wells were counted to determine initial count at time of treatments (glutamate, aspartate, BPTES, DON or C968). After 2 days, 4 days or 6 days, the contents of the wells were trypsinized and counted, and proliferation rate was calculated. […]

PAECs [2] = assay: Cell migration (scratch assay) of PAECs; assay type: cell-based, human; details: aspartate supplementation 10 mM; data not shown

## N[C@@H](CC(=O)O)C(=O)O [aspartate, Aspartate]
PAECs [1]
  cellular proliferation in cells with diminished GLS1 or YAP/TAZ: more fully restored
PAECs [2]
  cell migration of GLS1-deficient PAECs in stiff matrix: reversed
